# Results taken from patent US20020143164A1, “Ras activator nucleic acid molecules, polypeptides and methods of use” (priority 1999, published 2002).
# Results are given in words; binding and its absence hold for the method and conditions named. Binding seen in cells or lysates may run through a third protein. Some binding calls cover weakened binding; strength is not graded here. Tags and fused reporters may be left off the sequences shown.
# T1: Flag-tagged full-length GRF4 (human) (UniProt Q9Y4G8)
# T1 sequence: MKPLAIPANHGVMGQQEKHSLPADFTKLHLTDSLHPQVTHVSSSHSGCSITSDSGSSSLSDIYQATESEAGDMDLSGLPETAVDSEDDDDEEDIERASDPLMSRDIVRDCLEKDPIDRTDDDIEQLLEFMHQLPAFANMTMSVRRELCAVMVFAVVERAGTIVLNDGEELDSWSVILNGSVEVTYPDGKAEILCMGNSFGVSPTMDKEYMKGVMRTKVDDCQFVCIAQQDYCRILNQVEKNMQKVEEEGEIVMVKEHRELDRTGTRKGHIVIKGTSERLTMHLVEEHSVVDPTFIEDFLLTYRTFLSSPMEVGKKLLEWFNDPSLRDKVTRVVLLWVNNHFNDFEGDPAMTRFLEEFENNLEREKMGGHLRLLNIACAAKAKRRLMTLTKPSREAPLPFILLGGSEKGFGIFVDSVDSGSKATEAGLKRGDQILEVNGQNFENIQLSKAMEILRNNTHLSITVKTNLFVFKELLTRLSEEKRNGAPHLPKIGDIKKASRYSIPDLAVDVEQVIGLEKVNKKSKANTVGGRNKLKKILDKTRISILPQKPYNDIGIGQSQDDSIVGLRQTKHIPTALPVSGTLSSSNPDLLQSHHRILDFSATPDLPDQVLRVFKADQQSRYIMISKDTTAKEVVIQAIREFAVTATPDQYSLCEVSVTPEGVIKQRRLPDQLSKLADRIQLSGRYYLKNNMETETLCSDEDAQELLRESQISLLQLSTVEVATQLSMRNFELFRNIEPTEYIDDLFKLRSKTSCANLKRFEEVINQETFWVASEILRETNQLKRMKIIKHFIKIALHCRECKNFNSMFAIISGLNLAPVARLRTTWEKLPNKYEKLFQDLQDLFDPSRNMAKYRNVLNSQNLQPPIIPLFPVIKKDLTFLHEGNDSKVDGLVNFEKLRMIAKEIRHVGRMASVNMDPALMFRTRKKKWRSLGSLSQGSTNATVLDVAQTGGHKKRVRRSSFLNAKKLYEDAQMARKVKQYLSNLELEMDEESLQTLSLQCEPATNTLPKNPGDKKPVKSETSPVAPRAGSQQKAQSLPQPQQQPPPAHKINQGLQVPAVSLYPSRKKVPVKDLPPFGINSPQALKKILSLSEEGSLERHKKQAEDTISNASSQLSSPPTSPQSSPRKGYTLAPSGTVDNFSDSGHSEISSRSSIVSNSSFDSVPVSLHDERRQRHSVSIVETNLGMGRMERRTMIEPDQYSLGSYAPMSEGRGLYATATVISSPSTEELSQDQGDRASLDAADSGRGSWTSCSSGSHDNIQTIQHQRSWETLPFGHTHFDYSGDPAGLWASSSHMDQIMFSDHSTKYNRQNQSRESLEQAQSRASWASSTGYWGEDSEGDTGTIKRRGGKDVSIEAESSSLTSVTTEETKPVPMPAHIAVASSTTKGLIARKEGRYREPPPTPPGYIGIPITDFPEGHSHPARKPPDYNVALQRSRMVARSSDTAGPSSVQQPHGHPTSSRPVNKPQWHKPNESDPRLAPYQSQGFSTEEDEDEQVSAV
# Target: T1, Flag-tagged full-length GRF4 (human)
# Assay: pull-down with biotinylated peptide on streptavidin agarose beads
binder,measurement,value
"GFSTEEDEDEQVSAV (biotinylated (position not given)) [Biotinylated peptide of the last 15 amino acids of GRF4, containing the PDZ-binding motif SAV*]",binding,binds
